This passage reports binding results from doi:10.1101/2020.11.24.395905.

This assay addresses T1, Orco:GFP (odour receptor coreceptor fused to GFP) (Drosophila) (UniProt Q9VNB5).
T1 sequence: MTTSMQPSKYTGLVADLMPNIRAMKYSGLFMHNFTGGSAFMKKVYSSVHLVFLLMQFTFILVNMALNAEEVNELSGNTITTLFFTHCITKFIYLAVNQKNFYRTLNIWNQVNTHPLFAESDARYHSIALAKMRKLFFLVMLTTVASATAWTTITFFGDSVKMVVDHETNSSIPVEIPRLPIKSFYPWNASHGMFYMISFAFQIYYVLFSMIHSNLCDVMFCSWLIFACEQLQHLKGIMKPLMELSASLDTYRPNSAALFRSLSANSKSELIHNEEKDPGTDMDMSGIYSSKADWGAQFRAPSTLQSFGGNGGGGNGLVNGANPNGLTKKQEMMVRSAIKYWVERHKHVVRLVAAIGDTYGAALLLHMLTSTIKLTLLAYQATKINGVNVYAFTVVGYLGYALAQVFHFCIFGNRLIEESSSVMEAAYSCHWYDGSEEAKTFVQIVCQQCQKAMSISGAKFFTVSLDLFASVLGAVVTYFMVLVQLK
The experiment in a line: co-IP.

These are yes or no findings as the source states them, for the method shown. Binding seen in cells or lysates may run through a third protein. Some entries that bind do so weakly or less than the wild type. Sequences can lack the tags named with a protein.

B1: KLP68D (kinesin-2β motor subunit) (protein, UniProt P46867 1-784)
chain: MSAKSRRPGTGSSQTPNECVQVVVRCRPMSNRERSERSPEVVNVYPNRGVVELQNVVDGNKEQRKVFTYDAAYDASATQTTLYHEVVFPLVSSVLEGFNGCIFAYGQTGTGKTFTMEGVRGNDELMGIIPRTFEQIWLHINRTENFQFLVDVSYLEIYMEELRDLLKPNSKHLEVRERGSGVYVPNLHAINCKSVEDMIKVMQVGNKNRTVGFTNMNEHSSRSHAIFMIKIEMCDTETNTIKVGKLNLIDLAGSERQSKTGASAERLKEASKINLALSSLGNVISALAESSPHVPYRDSKLTRLLQDSLGGNSKTIMIANIGPSNYNYNETLTTLRYASRAKSIQNQPIKNEDPQDAKLKEYQEEIERLKRLIGPQQQQRSEKQVTAKKQRVKKPKKETVTKEMSDSLQVSTIEQPVEDDSDPEGAESESDKENEAEVAKSNEELERERVENSKLAAKLAELEGQLVRGGKNLLDTYSERQIELEKKLVEIAERKKREIEIQQQLELQEETTLEIRERNVSLEQEVELKKRKLSKCYAKYLALQQELNDCKSDHNQDLRELEMAQNELVKELKRQLLIIDNFVPIEVKQRLYTQAKYDEEQEEWKFSSMSLPTPPGGDGKFSSKRPVSHPQRRRPTSEYALQEAKSNSPSSLRFKSENIVNYELEMPCRTTQEYRTPKVSASLQAVLAQAMQTGGDDIDIVDSHTNSLRSRLENIINANANGGAGPGAGVAVGSSIPNVRNIKSSRGLPSAASNLDSNRRPPTGRLPAKKPASAYPKARGLVNK
Turning to B1, the binding entry is recorded as “binds”.
